Literature values as cited in patent publication US11998014B1, “O-{1-[(3,5-dinitrobenzoyl)amino]propan-2-yl} (4-chlorophenyl)carbamothioate as an eco-friendly insecticidal agent against Spodoptera littoralis (boisd.)” (KING FAISAL UNIVERSITY, priority 2024, dated 2024).
Some results were stated once for a whole list of compounds, not compound by compound.

System: aquatic insects
Conditions: cited from earlier work

Row | Structure (SMILES) | LC50 [µg/mL]
1 | COC(C)(C)CCCC(C)C/C=C/C(C)=C/C(=O)OC(C)C (centres unmarked) [methoprene] | < 100
2 | CCOC(=O)NCCOc1ccc(Oc2ccccc2)cc1 [fenoxycarb] | < 100
